Experimental data taken from publication PMC8599806.
No constants are given. Whether binding was seen depends on the method and setting. In cells and extracts the contact can be indirect. A yes stands for co-enrichment or nearness to the bait. Other partners may have been found. No binding means not detected with the bait. Tags and fused reporters may be left off the sequences shown.

Amino acid sequences for entries named in this document (tags omitted).
UniProt P46063: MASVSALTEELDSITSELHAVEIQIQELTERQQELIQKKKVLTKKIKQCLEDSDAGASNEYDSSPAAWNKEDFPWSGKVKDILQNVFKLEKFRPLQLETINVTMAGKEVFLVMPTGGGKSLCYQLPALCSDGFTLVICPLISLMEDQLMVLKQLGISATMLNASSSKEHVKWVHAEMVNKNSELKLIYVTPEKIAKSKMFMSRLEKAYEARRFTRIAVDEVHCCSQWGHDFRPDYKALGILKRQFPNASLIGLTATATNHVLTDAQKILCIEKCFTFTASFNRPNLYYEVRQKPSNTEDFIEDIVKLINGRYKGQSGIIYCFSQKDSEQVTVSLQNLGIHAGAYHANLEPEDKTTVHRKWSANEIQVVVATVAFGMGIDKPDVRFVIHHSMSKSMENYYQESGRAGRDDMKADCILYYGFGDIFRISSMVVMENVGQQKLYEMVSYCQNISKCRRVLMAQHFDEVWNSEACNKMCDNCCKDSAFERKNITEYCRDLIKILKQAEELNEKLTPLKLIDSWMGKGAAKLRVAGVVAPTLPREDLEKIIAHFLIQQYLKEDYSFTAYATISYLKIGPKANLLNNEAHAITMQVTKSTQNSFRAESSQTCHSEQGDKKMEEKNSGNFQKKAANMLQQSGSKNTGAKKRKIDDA
UniProt Q92878: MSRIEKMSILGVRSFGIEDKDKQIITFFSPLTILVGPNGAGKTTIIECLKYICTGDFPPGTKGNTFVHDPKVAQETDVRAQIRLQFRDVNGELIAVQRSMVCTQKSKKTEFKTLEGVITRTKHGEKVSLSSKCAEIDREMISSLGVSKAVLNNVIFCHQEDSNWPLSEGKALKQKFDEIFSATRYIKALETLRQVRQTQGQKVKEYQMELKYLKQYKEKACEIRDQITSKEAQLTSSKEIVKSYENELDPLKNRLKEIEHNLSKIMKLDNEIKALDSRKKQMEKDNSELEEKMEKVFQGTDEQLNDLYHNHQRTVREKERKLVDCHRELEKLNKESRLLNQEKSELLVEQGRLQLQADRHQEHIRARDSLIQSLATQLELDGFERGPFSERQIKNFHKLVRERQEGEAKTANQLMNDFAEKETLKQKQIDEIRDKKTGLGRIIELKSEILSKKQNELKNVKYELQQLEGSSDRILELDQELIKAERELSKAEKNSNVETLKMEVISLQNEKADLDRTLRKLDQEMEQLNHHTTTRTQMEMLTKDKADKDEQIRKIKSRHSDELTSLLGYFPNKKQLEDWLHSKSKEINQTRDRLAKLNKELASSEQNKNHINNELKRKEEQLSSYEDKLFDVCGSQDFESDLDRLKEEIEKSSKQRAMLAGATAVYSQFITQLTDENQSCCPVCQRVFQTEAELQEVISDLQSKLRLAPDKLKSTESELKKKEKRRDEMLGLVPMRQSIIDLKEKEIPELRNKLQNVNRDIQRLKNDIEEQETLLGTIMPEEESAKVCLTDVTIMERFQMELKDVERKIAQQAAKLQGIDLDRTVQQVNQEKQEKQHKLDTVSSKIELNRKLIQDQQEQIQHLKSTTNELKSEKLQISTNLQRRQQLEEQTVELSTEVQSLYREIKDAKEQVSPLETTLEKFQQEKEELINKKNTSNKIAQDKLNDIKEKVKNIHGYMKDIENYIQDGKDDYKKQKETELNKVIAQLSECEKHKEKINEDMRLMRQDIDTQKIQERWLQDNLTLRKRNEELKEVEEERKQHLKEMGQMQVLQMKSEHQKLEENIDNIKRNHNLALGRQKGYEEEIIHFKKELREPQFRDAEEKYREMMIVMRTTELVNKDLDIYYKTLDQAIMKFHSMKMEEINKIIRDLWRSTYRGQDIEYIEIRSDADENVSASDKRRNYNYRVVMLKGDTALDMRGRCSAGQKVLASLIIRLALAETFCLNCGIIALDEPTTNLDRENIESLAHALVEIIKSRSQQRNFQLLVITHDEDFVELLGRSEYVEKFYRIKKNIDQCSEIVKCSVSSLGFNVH
UniProt Q99873: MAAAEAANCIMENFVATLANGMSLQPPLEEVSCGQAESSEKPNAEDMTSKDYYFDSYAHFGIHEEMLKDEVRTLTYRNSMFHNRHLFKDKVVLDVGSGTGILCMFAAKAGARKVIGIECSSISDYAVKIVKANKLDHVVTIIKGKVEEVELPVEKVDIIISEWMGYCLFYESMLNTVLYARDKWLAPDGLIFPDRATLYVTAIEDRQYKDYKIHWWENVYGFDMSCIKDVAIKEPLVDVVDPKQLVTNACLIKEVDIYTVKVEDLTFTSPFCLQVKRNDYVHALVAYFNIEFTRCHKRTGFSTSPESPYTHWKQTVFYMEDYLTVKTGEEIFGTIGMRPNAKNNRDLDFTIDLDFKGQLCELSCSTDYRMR
UniProt Q06609: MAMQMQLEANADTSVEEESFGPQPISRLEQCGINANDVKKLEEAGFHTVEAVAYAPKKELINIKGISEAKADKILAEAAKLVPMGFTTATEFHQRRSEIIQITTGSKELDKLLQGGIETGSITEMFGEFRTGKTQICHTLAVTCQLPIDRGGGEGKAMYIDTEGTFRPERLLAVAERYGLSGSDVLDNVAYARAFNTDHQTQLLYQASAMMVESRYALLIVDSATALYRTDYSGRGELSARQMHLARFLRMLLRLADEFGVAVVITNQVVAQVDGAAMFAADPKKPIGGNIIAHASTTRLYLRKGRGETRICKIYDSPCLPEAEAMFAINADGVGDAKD
UniProt O60934: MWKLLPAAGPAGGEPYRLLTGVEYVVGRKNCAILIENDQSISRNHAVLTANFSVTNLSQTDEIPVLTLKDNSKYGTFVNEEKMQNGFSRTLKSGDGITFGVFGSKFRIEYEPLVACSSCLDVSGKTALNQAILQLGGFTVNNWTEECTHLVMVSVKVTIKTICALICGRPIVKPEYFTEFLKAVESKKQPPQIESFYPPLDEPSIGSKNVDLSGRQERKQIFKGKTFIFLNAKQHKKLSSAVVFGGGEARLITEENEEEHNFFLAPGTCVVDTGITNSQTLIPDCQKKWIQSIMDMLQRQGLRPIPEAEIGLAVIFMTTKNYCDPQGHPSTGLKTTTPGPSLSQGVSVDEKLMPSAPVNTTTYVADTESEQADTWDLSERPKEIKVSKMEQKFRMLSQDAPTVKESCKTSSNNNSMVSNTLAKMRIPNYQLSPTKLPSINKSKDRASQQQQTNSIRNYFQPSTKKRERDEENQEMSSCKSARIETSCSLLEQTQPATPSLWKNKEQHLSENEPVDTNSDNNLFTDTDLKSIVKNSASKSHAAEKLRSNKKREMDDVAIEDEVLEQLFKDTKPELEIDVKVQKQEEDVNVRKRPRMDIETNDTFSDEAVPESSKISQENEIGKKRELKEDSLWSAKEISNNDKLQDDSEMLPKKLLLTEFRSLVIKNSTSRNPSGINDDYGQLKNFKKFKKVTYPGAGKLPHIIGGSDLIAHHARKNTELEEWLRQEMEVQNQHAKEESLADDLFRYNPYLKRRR

Target: T1, GFP-Flag-tagged ID3 (inhibitor of DNA-binding 3), wild type (human) (UniProt Q02535)
T1 sequence: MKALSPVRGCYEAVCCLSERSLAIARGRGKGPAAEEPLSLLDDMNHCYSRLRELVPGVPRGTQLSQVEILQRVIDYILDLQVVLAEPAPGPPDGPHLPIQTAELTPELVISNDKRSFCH
Test: affinity purification with mass spectrometry; Flag-ID3 immunoprecipitated with anti-Flag magnetic beads from nuclear lysates (benzonase treated, 300 mM NaCl extraction buffer) of ID3-KO U2OS cells expressing GFP-Flag-ID3 or empty vector; untreated, 15 min or 1 h after 10 Gy; on-bead digestion, label-free quantitative mass spectrometry

| binding | Substance |
| --- | --- |
| binds | RECQL helicase (from UniProt P46063 1-649) |
| binds | RAD50 (from UniProt Q92878 1-1312) |
| binds | PRMT1 (from UniProt Q99873 1-371) |

The next lines start with the substance.

| Substance | binding |
| --- | --- |
| RAD51 (from UniProt Q06609 1-339) | no binding |
| NBS1 (from UniProt O60934 1-754) | binds |
